Assay results taken from US7446117B2, “Cox-2 inhibiting pyridine derivatives” (Glaxo Group Limited, priority 2002, dated 2008).
Some entries share one result that the patent states for a list of compounds.

The chains behind the UniProt entries cited, without tags or fusion partners. Residues count along the entry.
UniProt P23219, 24-599: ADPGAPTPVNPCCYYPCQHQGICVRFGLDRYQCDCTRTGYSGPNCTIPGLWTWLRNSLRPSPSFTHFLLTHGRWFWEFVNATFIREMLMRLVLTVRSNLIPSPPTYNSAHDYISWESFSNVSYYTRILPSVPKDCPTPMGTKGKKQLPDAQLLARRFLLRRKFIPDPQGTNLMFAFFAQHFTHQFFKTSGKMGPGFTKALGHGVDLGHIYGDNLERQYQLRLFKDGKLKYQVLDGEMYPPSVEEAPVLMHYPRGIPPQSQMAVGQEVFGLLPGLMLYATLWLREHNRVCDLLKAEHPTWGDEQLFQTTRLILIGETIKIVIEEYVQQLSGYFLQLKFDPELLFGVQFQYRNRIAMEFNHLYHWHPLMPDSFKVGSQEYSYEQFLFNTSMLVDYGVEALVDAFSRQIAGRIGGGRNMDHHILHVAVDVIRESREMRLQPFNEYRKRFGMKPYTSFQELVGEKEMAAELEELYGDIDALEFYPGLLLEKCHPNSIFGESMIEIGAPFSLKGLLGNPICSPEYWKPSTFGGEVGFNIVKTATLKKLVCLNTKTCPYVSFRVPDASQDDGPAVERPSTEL

Target: COX-1 (Homo sapiens, UniProt P23219)
Test: COX-1 inhibition, IC50 compared for selectivity for COX-2 over COX-1
Assay type: biochemical
Details: based on comparison of the respective IC50 values

SMILES | selectivity for COX-2 over COX-1 [fold]
Cc1ncccc1COc1cc(C(F)(F)F)cc(-c2ccc(S(C)(=O)=O)cc2)n1 [Example 185] | ≥ 100
Cc1ccc(COc2cc(C(F)(F)F)cc(-c3ccc(S(C)(=O)=O)cc3)n2)cn1 [Example 186] | ≥ 100
Cc1nn(C)cc1CNc1cc(C(F)(F)F)cc(-c2ccc(S(C)(=O)=O)cc2)n1 [Example 187] | ≥ 100
Cc1c(CNc2cc(C(F)(F)F)cc(-c3ccc(S(C)(=O)=O)cc3)n2)cnn1C [Example 188] | ≥ 100
Cc1csc(CNc2cc(C(F)(F)F)cc(-c3ccc(S(C)(=O)=O)cc3)n2)n1 [Example 189] | ≥ 100
CS(=O)(=O)c1ccc(-c2cc(C(F)(F)F)cc(Oc3cncc(Cl)c3)n2)cc1 [Example 190] | ≥ 100
CS(=O)(=O)c1ccc(-c2cc(C(F)(F)F)cc(Nc3ccc(Cl)nn3)n2)cc1 [Example 191] | ≥ 100
Cc1ccc(CNc2nc(-c3ccc(S(C)(=O)=O)cc3)cc(C)c2C#N)cn1 [Example 192] | ≥ 100
CCN(Cc1ccccc1)c1cc(C(F)(F)F)cc(-c2ccc(S(C)(=O)=O)cc2)n1 [Example 193] | ≥ 100
CCOC(=O)c1c(CC)cc(-c2ccc(S(C)(=O)=O)cc2)nc1NCc1ccccc1 [Example 197] | ≥ 100
CS(=O)(=O)c1ccc(-c2cc(C(F)(F)F)cc(OCc3ccc(Br)cn3)n2)cc1 [Example 200] | ≥ 100
CS(=O)(=O)c1ccc(-c2cc(C(F)(F)F)cc(OCc3ccncc3Br)n2)cc1 [Example 201] | ≥ 100
Cc1cc(NCc2conc2C)nc(-c2ccc(S(C)(=O)=O)cc2)c1 [Example 202] | ≥ 100
CCc1cc(NCc2nccn2CC)nc(-c2ccc(S(C)(=O)=O)cc2)c1 [Example 204] | ≥ 100
Cc1cc(-c2ccc(S(C)(=O)=O)cc2)nc(N(C)Cc2nccn2C)c1C#N [Example 205] | ≥ 100
CS(=O)(=O)c1ccc(-c2cc(C(F)(F)F)cc(N[C@H]3CC[C@@H](C)CC3)n2)cc1 [Example 206] | ≥ 100
CS(=O)(=O)c1ccc(-c2cc(C(F)(F)F)cc(N[C@H]3CC[C@H](C)CC3)n2)cc1 [Example 207] | ≥ 100
CS(=O)(=O)c1ccc(-c2cc(C(F)(F)F)cc(NCc3ccccn3)n2)cc1 [Example 208] | ≥ 100
CS(=O)(=O)c1ccc(-c2cc(C(F)(F)F)cc(NC3CCCCCC3)n2)cc1 [Example 209] | ≥ 100
Cc1cc(-c2ccc(S(C)(=O)=O)cc2)nc(NCc2ccccn2)c1C#N [Example 210] | ≥ 100

SMILES | selectivity for COX-2 over COX-1 [fold]
CCC(CC)Nc1cc(C(F)(F)F)cc(-c2ccc(S(C)(=O)=O)cc2)n1 [Example 211] | ≥ 100
CS(=O)(=O)c1ccc(-c2cc(C(F)(F)F)cc(NC3CCC3)n2)cc1 [Example 212] | ≥ 100
Cc1noc(CNc2cc(C(F)(F)F)cc(-c3ccc(S(C)(=O)=O)cc3)n2)n1 [Example 213] | ≥ 100
Cc1nc(CNc2cc(C(F)(F)F)cc(-c3ccc(S(C)(=O)=O)cc3)n2)no1 [Example 214] | ≥ 100
CCc1cc(-c2ccc(S(C)(=O)=O)cc2)nc(OCc2ccccn2)c1C#N [Example 217] | ≥ 100
Cc1cc(NCc2ccnn2C)nc(-c2ccc(S(C)(=O)=O)cc2)c1 [Example 218] | ≥ 100
CS(=O)(=O)c1ccc(-c2cc(C(F)(F)F)cc(NCC3CCCC3)n2)cc1 [Example 219, N-(cyclopentanemethyl)-4-(trifluoromethyl)-6-[4-(methylsulfonyl)phenyl]pyridine-2-amine] | ≥ 100
CCc1cc(-c2ccc(S(C)(=O)=O)cc2)nc(OCc2ccccn2)c1Cl [Example 220] | ≥ 100
CCO[C@H]1CC[C@H](Nc2cc(C(F)(F)F)cc(-c3ccc(S(C)(=O)=O)cc3)n2)CC1 [Example 221] | ≥ 100
CCc1cc(-c2ccc(S(C)(=O)=O)cc2)nc(NCc2ccccn2)c1C#N [Example 222, 4-Ethyl-6-[4-(methylsulfonyl)phenyl]-2-[(2-pyridinylmethyl)amino]-3-pyridinecarbonitrile] | ≥ 100
CCc1cc(-c2ccc(S(C)(=O)=O)cc2)nc(NCc2ccc(C)cn2)c1C#N [Example 223] | ≥ 100
CCc1cc(-c2ccc(S(C)(=O)=O)cc2)nc(NCc2ccc(C)nc2)c1C#N [Example 224] | ≥ 100
CCc1cc(-c2ccc(S(C)(=O)=O)cc2)nc(NCc2cnn(C)c2)c1C#N [Example 228] | ≥ 100
CCc1cc(-c2ccc(S(C)(=O)=O)cc2)nc(NCc2nc(C)cs2)c1C#N [Example 229] | ≥ 100
CCc1cc(-c2ccc(S(C)(=O)=O)cc2)nc(NCC2CCCCC2)c1C#N [Example 231] | ≥ 100
CCc1cc(NCc2ncnn2CC)nc(-c2ccc(S(C)(=O)=O)cc2)c1 [Example 232] | ≥ 100
CCc1cc(NCc2ncnn2C)nc(-c2ccc(S(C)(=O)=O)cc2)c1 [Example 233] | ≥ 100
CCn1ncnc1CNc1cc(C)cc(-c2ccc(S(C)(=O)=O)cc2)n1 [Example 234, N-[(1-ethyl-1H-1,2,4-triazol-5-yl)methyl]-4-methyl-6-[4-(methylsulfonyl)phenyl]pyridine-2-amine] | ≥ 100
CCn1ncnc1CNc1cc(C(F)(F)F)cc(-c2ccc(S(C)(=O)=O)cc2)n1 [Example 235] | ≥ 100
CCc1cc(-c2ccc(S(C)(=O)=O)cc2)nc(OCc2ccc(C)nc2)c1C#N [Example 236, 4-Ethyl-2-{[(6-methyl-3-pyridinyl)methyl]oxy}-6-[4-(methylsulfonyl)phenyl]-3-pyridinecarbonitrile] | ≥ 100
